Patent US20240108662A1, “ENGINEERED CELLS FUNCTIONALIZED WITH IMMUNE CHECKPOINT MOLECULES AND USES THEREOF” (The University of North Carolina at Chapel Hill, priority 2020, published 2024)

B1: Q9WVD5 (protein, UniProt Q9WVD5 1-301, looked up)
chain: MKSNPAIQAAIDLTAGAAGGTACVLTGQPFDTMKVKMQTFPDLYRGLTDCCLKTYSQVGFRGFYKGTSPALIANIAENSVLFMCYGFCQQVVRKVVGLDQQAKLSDLQNAAAGSFASAFAALVLCPTELVKCRLQTMYEMETSGKIAASQNTVWSVVKEIFRKDGPLGFYHGLSSTLLREVPGYFFFFGGYELSRSFFASGRSKDELGPVPLMLSGGFGGICLWLAVYPVDCIKSRIQVLSMTGKQTGLVRTFLSIVKNEGITALYSGLKPTMIRAFPANGALFLAYEYSRKLMMNQLEAW
modifications: full-length
B2: Q925H3 (protein, UniProt Q925H3 1-78, looked up)
chain: MCGYYGNYYGGRGYGCCGCGGLGYGYGGLGCGYGSYYGCGYRGLGCGYGYGCGYGSRSLYGCGYGCGSGYGSGFGYYY
modifications: full-length
B3: Q8BS95 (protein, UniProt Q8BS95 1-455, looked up)
chain: MSFLIDSSIMITSQILFFGFGWLFFMRQLFKDYEVRQYVVQVIFSVTFAFSCTMFELIIFEILGVLNSSSRYFHWKLNLCVILLILVFMVPFYIGYFIVSNIQLLHKQRLLFSCLLWLTFMYFFWKLGDPFPILSPKHGILSIEQLISRVGVIGVTLMALLSGFGAVNCPYTYMSYFLRNVTDTDILALERRLLQTMDMIISKKKRMAVARRTMFQRGDVQNKPSGLWGMLKSVTASAPGSENLTLIQQEVDALEELSRQLFLETADLYATKERIEYSKTFKGKYFNFLGYFFSIYCVWKIFMATINIVLDRVGKTDPVTRGIEITVNYLGIQFDVKFWSQHISFILVGIIIVTSIRGLLITLTKFFYAISSSKSSNVIVLLLAQIMGMYFVSSVLLIRMSMPPEYRTIITEVLGELQFNFYHRWFDVIFLVSALSSILFLYLAHKQAPEKHMAP
modifications: full-length
B4: B2RY56 (protein, UniProt B2RY56 1-838, looked up)
chain: MSFPPHLNRPPMGIPALPPGIPPPQFPGFPPPVPPGTPMIPVPMSIMAPAPTVLVPTVSMVGKHLGARKDHPGLKLKENDENCGPTTTVFVGNISEKASDMLIRQLLAKCGLVLSWKRVQGASGKLQAFGFCEYKEPESTLRALRLLHDLQIGEKKLLVKVDAKTKAQLDEWKAKKKANGNARPETVTNDDEEALDEETKRRDQMIKGAIEVLIREYSSELNAPSQESDSHPRKKKKEKKEDIFRRFPVAPLIPYPLITKEDINAIEMEEDKRDLISREISKFRDTHKKLEEEKGKKEKERQEIEKERRERERERERERERREREREREREREREKEKERERERERDRDRDRTKERDRDRERDRDRDRERSSDRNKDRSRSREKSRDREREREREREREREREREREREREREREREREREKDKKRDREEDEEDAYERRKLERKLREKEAAYQERLKNWEIRERKKTREYEKEAEREEERRREMAKEAKRLKEFLEDYDDDRDDPKYYRGSALQKRLRDREKEMEADERDRKREKEELEEIRQRLLAEGHPDPDAELQRMEQEAERRRQPQIKQEPESEEEEEEKQEKEEKREEPVEEEEEPEQKPCLKPTLRPISSAPSVSSASGNATPNTPGDESPCGIIIPHENSPDQQQPEEHRPKIGLSLKLGASNSPGQPNSVKRKKLPVDSVFNKFEDEDSDDVPRKRKLVPLDYGEDDKNATKGTVNTEEKRKHIKSLIEKIPTAKPELFAYPLDWSIVDSILMERRIRPWINKKIIEYIGEEEATLVDFVCSKVMAHSSPQSILDDVAMVLDEEAEVFIVKMWRLLIYETEAKKIGLVK
modifications: full-length
B5: Q8BXQ2 (protein, UniProt Q8BXQ2 1-582, looked up)
chain: MAAAMPLGLPLRLLVLLLVGRGCCGCAEGPRDSLREELVITPLPSGDVAATFQFRTRWDSDLQREGVSHYRLFPKALGQLISKYSLRELHLSFTQGFWRTRYWGPPFLQAPSGAELWVWFQDTVTDVDKSWRELSNVLSGIFCASLNFIDATNTVTPTASFKPLGLANDTDDYFLRYAVLPREVVCTENLTPWKKLLPCSSKAGLSVLLKADRLFHTSYHSQAVHIRPICRNAHCTSISWELRQTLSVVFDAFITGQGKKDWSLFRMFSRTLTEACPLASQSLVYVDITGYSQDNETLEVSPPPTSTYQDVILGTRKTYAVYDLFDTAMINNSRNLNIQLKWKRPPDNEALPVPFLHAQRYVSGYGLQKGELSTLLYNSHPYRAFPVLLLDVVPWYLRLYVHTLTITSKGKENKPSYIHYQPAQDRQQPHLLEMLIQLPANSVTKVSIQFERALLKWTEYTPDPNHGFYVSPSVLSALVPSVVAAKPVDWEGSPLFNTLFPVSDGSSYFVRLYTEPLLVNLPTPDFSMPYNVICLTCTVVAVCYGSFYNLLTRTFHIEEPKSGGLAKRLANLIRRARGVPPL
modifications: full-length
B6: Q9QZU5 (protein, UniProt Q9QZU5 1-150, looked up)
chain: MSYTCNSGNYSSQSFGGFLRQPVSTYNSFYPTSNVVYSPKNFQLGSSFYNGQQETFSEPLEGHLPCVGSASFHTSCFRPKQYFSSPCQGGFTGSFGYGNTGFGAFGFGSSGIRSQGCGSNFYRPGYFSSKSIQSSYYQPGYSSGFCGSNF
modifications: full-length
B7: Q9EQ06 (protein, UniProt Q9EQ06 1-298, looked up)
chain: MKYLLDLILLLPLLIVFSIESLVKLFIPKKKKSVAGEIVLITGAGHGIGRLTAYEFAKLNTKLVLWDINKNGIEETAAKCRKLGAQAHPFVVDCSQREEIYSAAKKVKEEVGDVSILVNNAGVVYTADLFATQDPQIEKTFEVNVLAHFWTTKAFLPVMMKNNHGHIVTVASAAGHTVVPFLLAYCSSKFAAVGFHRALTDELAALGRTGVRTSCLCPNFINTGFIKNPSTNLGPTLEPEEVVEHLMHGILTEKQMIFVPSSIALLTVLERIVPERFLQVLKHRINVKFDAVVGYKDK
modifications: full-length
B8: Q8K2A8 (protein, UniProt Q8K2A8 1-438, looked up)
chain: MAAGLRKRGQPASVGQPAGIWKQWLQRAWQERYLLLREPRYTLLVASCLCIAEVGITFWVIHRVAYTEIDWKAYMAQVEGFINGTYDYTQLQGDTGPLVYPAGFLYIFTGLFYATDRGTDIPMAQNIFAVLYLVTLVLVFLIYHQTSKVPPFVFFFMCCASYRVHSIFVLRLFNDPVAMALLFLSINLFLAQCWSWGCCCFSLAVSVKMNVLLFAPGLLFLLLTQFGFRGALPKLAICAALQVVLGLPFLLENPIGYLSRSFDLGRQFLFQWTVNWRFLPETIFLHRAFHLALLAAHLSLLLLFALCRWHRTGESILALLKDPSKRKVPPQALTPNQIVSILFTSNFIGICFSRSLHYQFYVWYFHTLPYLLWAMPARWLTHLLRLLVLGLIELSWNTYPSTSFSSAALHLCHAVVLLQLWLSPESFPKSIQPSRKTH
modifications: full-length
B9: Q91YR7 (protein, UniProt Q91YR7 1-941, looked up)
chain: MNKKKKPFLGMPAPLGYVPGLGRGATGFTTRSDIGPARDANDPVDDRHAPPGKRTVGDQMKKNQAADDDDEDLNDTNYDEFNGYAGSLFSSGPYEKDDEEADAIYAALDKRMDERRKERREQREKEEIEKYRMERPKIQQQFSDLKRKLAEVTEEEWLSIPEVGDARNKRQRNPRYEKLTPVPDSFFAKHLQTGENHTSVDPRQTQFGGLNTPYPGGLNTPYPGGMTPGLMTPGTGELDMRKIGQARNTLMDMRLSQVSDSVSGQTVVDPKGYLTDLNSMIPTHGGDINDIKKARLLLKSVRETNPHHPPAWIASARLEEVTGKLQVARNLIMKGTEMCPKSEDVWLEAARLQPGDTAKAVVAQAVRHLPQSVRIYIRAAELETDIRAKKRVLRKALEHVPNSVRLWKAAVELEEPEDARIMLSRAVECCPTSVELWLALARLETYENARKVLNKARENIPTDRHIWITAAKLEEANGNTQMVEKIIDRAITSLRANGVEINREQWIQDAEECDRAGSVATCQAVMRAVIGIGIEEEDRKHTWMEDADSCVAHNALECARAIYAYALQVFPSKKSVWLRAAYFEKNHGTRESLEALLQRAVAHCPKAEVLWLMGAKSKWLAGDVPAARSILALAFQANPNSEEIWLAAVKLESENNEYERARRLLAKARSSAPTARVFMKSVKLEWVLGNISAAQELCEEALRHYEDFPKLWMMKGQIEEQGELMEKAREAYNQGLKKCPHSTPLWLLLSRLEEKIGQLTRARAILEKSRLKNPKNPGLWLESVRLEYRAGLKNIANTLMAKALQECPNSGILWSEAVFLEARPQRKTKSVDALKKCEHDPHVLLAVAKLFWSERKITKAREWFHRTVKIDSDLGDAWAFFYKFELQHGTEEQQEEVRKRCENAEPRHGELWCAVSKDITNWQRKIGEILVLVAARIKNTF
modifications: full-length
B10: Q9D8Y1 (protein, UniProt Q9D8Y1 1-196, looked up)
chain: MESHKPSTSKDDLILNIISRKIKQLPESDRNLLEYGSAYIGLNAAFGGLIANSLFRRILNVTQARLASSLPMAVIPFLTANLSYQSLVSLPLSTGDLNCETCTTTRGALVGLVMGGLYPILLAIPVNGGLAARYESSPLPQRGNIFNYWITVSKPVFRKMLFPTLLQTVFASYLGSRQYKLLIKALQLPEPDLEIH
modifications: full-length
B11: Q8BGS7 (protein, UniProt Q8BGS7 1-416, looked up)
chain: MSGHRSTRKRCGDSHPESPVGFGHMSTTGCVLNKLFQLPTPPLSRHQLKRLEEHRYQSAGRSLLEPLMQGYWEWLVGRVPSWIAPNLITIIGLSINICTTILLVFYCPTATEQAPLWAYIACACGLFIYQSLDAIDGKQARRTNSSSPLGELFDHGCDSLSTVFVVLGTCIAVQLGTNPDWMFFCCFAGTFMFYCAHWQTYVSGTLRFGIIDVTEVQIFIIIMHLLAVIGGPPFWQSMIPVLNIQMKLLPALCTVAGTIFSCTNYFRVIFTGGVGKNGSTIAGTSVLSPFLHIGSVITLAVMIYKKSAVQLFEKHPCLYILTFGFVSAKITNKLVVAHMTKSEMHLHDTAFIGPALLFLDQYFNSFIDEYIVLWIALIFSFFDLIRYCVSVCNQIASHLHIHVFRIKASTAHSNHH
modifications: full-length
B12: Q8R570 (protein, UniProt Q8R570 1-413, looked up)
chain: MSSDMRVHSWSCSYYLDLEKQWVSGKLTLTPHSLKFIVEKTEEVLVGLPLSSIIEIRKESSLFIFGAITVLEKGQTKHWFSSLQPSRNVVFNVIEHFWRELLLSQPGTAANIPSHVTRGQELIGLMANSQKRMEDTAKDLQQQSEQLDSVLKGLEKMESDLDVADRLLTELETPSWWPFGSKFWKMPAEENLKEGVSSTCEPFGKEGVVITVPAIISERAESHSKLGKLTVLVSALEIYDSCSLLLHRFEKEDVDDIKVHSPYEVSIRQRFIGKPDVAYQLISAKMPEVIPILEVQFSSKIELLEDALVLRNKVFASSAERHAASRPKGCTPHRELPTGGQEGEQLQLQKNLPLFSEGEAQELTQILSKMKGLALDTEAELERQDAALDGITVAVDRATLNVDKQNRRMRKLM
modifications: full-length

assay: Proteomic analysis of native murine pancreata and decelled pancreatic ECM (Table 1); set-up: species or system mouse; conditions: abundance of the listed protein in decelled pancreatic ECM

Row | Molecule | Pancreatic ECM: Mean of log2(intensities)
1 | B1 | 25.53 a.u.
2 | B2 | 25.99 a.u.
3 | B3 | 24.82 a.u.
4 | B4 | 24.86 a.u.
5 | B5 | 24.67 a.u.
6 | B6 | 25.18 a.u.
7 | B7 | 24.95 a.u.
8 | B8 | 25.59 a.u.
9 | B9 | 25.17 a.u.
10 | B10 | 24.82 a.u.
11 | B11 | 25.39 a.u.
12 | B12 | 24.74 a.u.

same assay, conditions: abundance of the listed protein in native murine pancreas tissue

Row | Molecule | Native pancreas tissue: Mean of log2(intensities)
13 | B1 | 21.86 a.u.
14 | B2 | 22.33 a.u.
15 | B3 | 21.18 a.u.
16 | B4 | 21.21 a.u.
17 | B5 | 21.02 a.u.
18 | B6 | 21.55 a.u.
19 | B7 | 21.32 a.u.
20 | B8 | 22.01 a.u.
21 | B9 | 21.61 a.u.
22 | B10 | 21.27 a.u.
23 | B11 | 21.85 a.u.
24 | B12 | 21.23 a.u.
